Data reported in article PMC11148166.

T1: STAT1-TurboID-V5 (mouse) (UniProt P42225)
T1 sequence: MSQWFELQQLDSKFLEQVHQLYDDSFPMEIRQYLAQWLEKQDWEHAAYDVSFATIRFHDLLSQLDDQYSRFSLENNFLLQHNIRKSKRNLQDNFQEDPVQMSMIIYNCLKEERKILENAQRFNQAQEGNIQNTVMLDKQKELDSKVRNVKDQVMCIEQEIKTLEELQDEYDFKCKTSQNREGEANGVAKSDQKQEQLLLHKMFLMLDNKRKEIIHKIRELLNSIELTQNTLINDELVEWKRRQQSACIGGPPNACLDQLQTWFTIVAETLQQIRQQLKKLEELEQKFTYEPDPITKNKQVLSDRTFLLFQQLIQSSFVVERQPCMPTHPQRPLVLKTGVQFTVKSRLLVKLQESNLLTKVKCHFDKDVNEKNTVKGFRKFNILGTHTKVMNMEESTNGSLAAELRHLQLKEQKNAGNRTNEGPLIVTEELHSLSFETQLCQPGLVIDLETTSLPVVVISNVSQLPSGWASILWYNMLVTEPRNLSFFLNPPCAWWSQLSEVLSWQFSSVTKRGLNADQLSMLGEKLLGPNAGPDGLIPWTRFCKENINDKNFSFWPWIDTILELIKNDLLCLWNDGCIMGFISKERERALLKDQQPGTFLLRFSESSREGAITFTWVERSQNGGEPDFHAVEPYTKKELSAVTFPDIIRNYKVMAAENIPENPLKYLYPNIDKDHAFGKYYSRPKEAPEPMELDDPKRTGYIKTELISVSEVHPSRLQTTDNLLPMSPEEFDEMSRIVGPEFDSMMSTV

T2: STAT1-TurboID-V5 (mouse), P42225
T2 chain: T1 sequence

B1: YEATS2 (protein, UniProt Q3TUF7 1-1407)
chain: MSGIKRTIKETDPDYEDVSVALPNKRHKAIESSARDAAVQKIETIIKEQFALEMKNKEHEIDVIDQRLIEARRMMDKLRACIVANYYASAGLLKVSEGLKTFDPMAFNHPAIKKFLESPSRSSSPTNQRSETPSANHSESDSLSQHNDFLSDKDNNSNVDVEERPPSTGEQRPSRKAGRDTSSISGSHKRELRNADLTGDETSRLFVKKTIVVGNVSKYIPPDKREENDQSTHKWMVYVRGSRREPSINHFVKKVWFFLHPSYKPNDLVEVREPPFHLTRRGWGEFPVRVQVHFKDSQNKRIDIIHNLKLDRTYTGLQTLGAETVVDVELHRHSLGEDSVYPQSSESDVCDAPPPTLTLPAAVKASAVAQSPEPAAAAPVGEGFPETTEAERHSTFYSLPSSLERTPTKVTTAQKVTFSSHGNSAFQPIASSCKIVPQSQVPNPESPGKSFQPITMSCKIVSGSPISTPSPSPLPRTPTSTPVHLKQGTASSGVSNPHVIVDKPGQVIGASTPSTGSPTSKLPVASQASQGTGSPIPKIHGSSFLTSTVKQEESLFASMPPLCPIGSHPKVQSPKAVTGGLGAFTKVIIKQEPGEAPHVSTTGAASQSAFPQYVTVKGGHMIAVSPQKQVISAGEGTTQSPKIAPSKVVGVPVGSALPSTVKQAVAISSGQILVAKASSSVTKAVGPKQVVTQGVAKAIVSGGGGTIVAQPVQTLTKTQVTAAGPQKSGSQGSVMATLQLPATNLANLANLPPGTKLYLTTNSKNPSGKGKLLLIPQGAILRATNNANLQSGSAAAGGSGSSGAGGGSGGGGGSGAGGTPSTSGPGGGPQHLTYTSYILKQTPQGTFLVGQPSPQTPGKQLTTASVVQGTLGVSSSSAQGQQTLKVISGQKTTLFTQAATAGQASLLKLPDNTLKSVPAAPQLAKPGTTMLRVAGGVITAAPSPAVAFSANGAVHQSEGSTPVSSSVGSIIKTPGQPQVCVSQATMATCKGPAAVAGTAASLVSAPSSISGKATVSGLLKVHSAQSSPQQAVLTIPSQLKPLSINTSGGVQTVLMPVNKVVQSFSTSKLPTTVLPISVPNQAAPSSAPVAIAKVKTEPETPGPNCISQENQVAVKTEESSELSNYVIKVDHLETIQQLLTAVVKKIPLITAKGDDASCFSAKSLEQYYGWNIGKRRAAEWQRAMTVRKVLQEILEKNPRFHHLTPLKTKHIAHWCRCHGYTPPDPESLRHDGDSIEDVLTQIDSEPECLSSFSTADDLCRKLEDLQQFQKREPENEEEVDILSLSEPLKTNIKKEQEEKQEEMRFYLPPTPGSGFVGDITQKIGITLQPVALHRNMYASVVEDMILKATEQLVSDILRQALAVGYQTASPNRIPKEITVSNIHQAICNIPFLDFLTNKHMGRLNEDQ
B2: Edc3 (protein, UniProt Q8K2D3 1-508)
chain: MAMDWLGSIVSINCGDSLGVYQGRVSAVDQVSQTISLTRPFHNGVKCLVPEVTFRAGDITELKILEIPGPGDNQQVGDLHQTELGPSGVGYQMSISQNGTGKVVKKPASSSSAPQSIPKRTDVKSQDVAISPQQQQCSKSYVDRHMESLSQSKSFRRRHNSWSSSSRHPNQATPKKSGLKNGQMKNKDDECFGDDIEELPDTDFDFEGNLALFDKAAVFEEIDTYERRSGSRSRGVPNERPARYRHDENILESEPIVYRRITVPHSVSKEFCTDSGLVVPSVSYELHKKLLSVAEKHGLTLERRLEMTGVCASQMALTLLGGPNRLNPKNVHQRPTVALLCGPHVKGAQGISCGRHLANHDVQVILFLPNFVKMLESITNELSLFSKTQGQQVSSLRDLPASPVDLVINCLDCPENAFLRDQPWYKAAVAWANQNRAPVLSIDPPVHEVEQGIDAKWSLALGLPLPLGEHAGRVYLCDIGIPQQVFQEVGINYHSPFGCKFVIPLHSA
B3: IFI203 (protein, UniProt O35368 1-408)
chain: MAEYKNIVLLKGLENMEDYQFRTVKSLLRKELKLTKKMQEDYDRIQLADWMEDKFPKDAGLDKLIKVCEHIKDLKDLAKKLKTEKAKVQEKKKGKCKTAGKKKGQDELSSSESLFINKESYKSVPSSKKKRKQITKTEGGKKKKLTQEQAQLPETSGTNIKKEEDCLQNPHKSPPTPSSSSSNKAPRRGTVPKEPSREEGHHQGPKQVMVLKVTEPFTYDFEETKRMFHATVATETEFFRVKVFDTALMSKFIPGKIIAISHYIGCNGFLEIYRASCVSDVNINPTMIISNTLSESAIATPKISYLLSQAKGTFVNGEFVVFKKSERHECICYGIGDDTGKMAVVVYGRLTNVRCEPGSKLRLVCFELTSTKDVCLLRSVRHSYMQVINEGKPLNPDSVRRNSLEPYF
B4: c/EBPδ (protein, UniProt Q00322 1-268)
chain: MSAALFSLDSPVRGTPWPTEPAAFYEPGRVDKPGRGPEPGDLGELGSTTPAMYDDESAIDFSAYIDSMAAVPTLELCHDELFADLFNSNHKAAGAGGLELLQGGPTRPPGVGSVARGPLKREPDWGDGDAPGSLLPAQVAVCAQTVVSLAAAAQPTPPTSPEPPRGSPGPSLAPGTVREKGAGKRGPDRGSPEYRQRRERNNIAVRKSRDKAKRRNQEMQQKLVELSAENEKLHQRVEQLTRDLAGLRQFFKKLPSPPFLPPTGADCR
B5: TRIM14 (protein, UniProt Q8BVW3 1-440)
chain: MASETTEARAPFQPDGAYGWRCPEHSERPAELFCRRCGRCVCALCPVLGAHRGHPVGLAEEEAVRVQKLIQDCLECLATKKRQHADNIAHLEDAGERLKVYADSSKAWLTQKFTELRLLLDEEEVLAKKFIDKSTQLTLQVYREQAETCGKQIEVMDDFSTRVWGIGQEPNPVQLLQAYIATKTEMGQQMSPSELSHPVPLSFEPVKNFFKEFVEAIGNTLQTPMDTRLKENINCQLSNSSSTKPGALLKTSPSPERALFLKYARTPTLDPDTMHARLRLSPDGLTVRCSLLGRLGPRPAPRFDALRQVLGRDGFAAGRHYWEVDVQEAGVGWWVGAAYPSLRRRGASAAARLGCNRESWCVKRYDLEYWAFHDGQRSRLRPRRDPHRLGVFLDYEAGILAFYDVAGGMSHLHTFHAAFQEPLYPALRLWEGPISIPRLP
B6: Parp12 (protein, UniProt Q8BZ20 1-711)
chain: MAQAAVAVAEVTQLLCAAGGALELAELRRRLRTSLGTDALERLLRDCGRFVVASRAVVAVGAGREAAAAASERLVLAVSSLRLCRAHQGPKPGCTGLCAQLHLCKFLIYGNCKFLKTGKNCRNGHNLKTDHNLSVLRTHGVDHLTYTELCQLLLQNDPSLLPDICLHYNKGDGPFGSCSFQKQCIKLHICQYFLQGECKFGTSCKRSHEFTNSESLEQLERLGLSSDLVSRLLSTYRNAYDIKNKGSALSKVSPSPAGPQGSSERKDSSGPVSPGTPSQEESEQICLYHIRKSCSFQEKCHRVHFHLPYRWQFLDGGKWKDLDNMELIEEAYSNPSKDRIVYTESAAGFHFDNLDFNSMKFGNTLARRLSTASSVTKPPHFILTTDWIWYWMDEFGSWQEYGRQGSGHPVTTISSSDVERAYLAFCAPGADAQAATLKFQAGKHNYELHFKAFLQKNLVYGTIRKVCRRPKYVSPQDVQMKQSCNTKLHGPKSIPDYWDPAALPDLGFKKITLSSSSEEYQKVWNIFNRTLPFYFVQKIERIQNMGLWEVYQWQKCQMQKQNGGKEVDERQLFHGTSANFVDAICQQNFDWRVCGLHGTSYGKGSYFARDAAYSHHYSKSDTHSHMMFLARVLVGDFVRGSTSFVRPPAKEGQSNAFYDSCVNSMSDPTIFVVFEKHQVYPEYLIQYSTSSKPPASPSIFVALGNLFTSRQ
B7: Parp9 (protein, UniProt Q8CAS9 1-866)
chain: MAYYMDTWAAAPAERPGMIASLSLSFKKAFAELFPQRRRGHSEGDYPPLRGSANNSLEEHYRWQIPIKHNVFEILKSNESQLCEVLQNKFGCISTLSCPTLAGSSSPAQRVFRRTLIPGIELSVWKDDLTRHVVDAVVNAANENLLHGSGLAGSLVKTGGFEIQEESKRIIANVGKISVGGIAITGAGRLPCHLIIHAVGPRWTVTNSQTAIELLKFAIRNILDYVTKYDLRIKTVAIPALSSGIFQFPLDLCTSIILETIRLYFQDKQMFGNLREIHLVSNEDPTVASFKSASESILGRDLSSWGGPETDPASTMTLRIGRGLTLQIVQGCIEMQTTDVIVNSGYMQDFKSGRVAQSILRQAGVEMEKELDKVNLSTDYQEVWVTKGFKLSCQYVFHVAWHSQINKYQILKDAMKSCLEKCLKPDINSISFPALGTGLMDLKKSTAAQIMFEEVFAFAKEHKEKTLTVKIVIFPVDVETYKIFYAEMTKRSNELNLSGNSGALALQWSSGEQRRGGLEAGSPAINLMGVKVGEMCEAQEWIERLLVSLDHHIIENNHILYLGKKEHDVLSELQTSTRVSISETVSPRTATLEIKGPQADLIDAVMRIECMLCDVQEEVAGKREKNLWSLSGQGTNQQEKLDKMEESYTFQRYPASLTQELQDRKKQFEKCGLWVVQVEQIDNKVLLAAFQEKKKMMEERTPKGSGSQRLFQQVPHQFCNTVCRVGFHRMYSTSYNPVYGAGIYFTKSLKNLADKVKKTSSTDKLIYVFEAEVLTGSFCQGNSSNIIPPPLSPGALDVNDSVVDNVSSPETIVVFNGMQAMPLYLWTCTQDRTFSQHPMWSQGYSSGPGMVSSLQSWEWVLNGSSV
B8: IRF9, Q61179 1-399 (protein)
chain: MASGKVRCTRKLRSWIVEQVESGHFPGVCWDDAAKTMFRIPWKHAGKQDFREDQDAAIFKAWALFKEKHKDGDIGHPAVWKTRLRCALNKSSEFEEVPERGRMDVAEPYKVYRILPAGTLPNQPRNQKSPCKRSISCVSPEREENMENGRTNGVVNHSDSGSNIGGGGNGSNRSDSNSNCNSELEEGAGTTEATIREDPVFLEHQLPLNSDYSLLLTFIYGGRVVGKTQVHSLDCRLVAERSDSESSMEQVEFPKPDPLEPTQHLLNQLDRGVLVASNSRGLFVQRLCPIPISWNAPEAPPGPGPHLLPSNKCVELFKTTYFCRDLAQYFQGQGPPPKFQATLHFWEESPGSSHSQENLITVQMEQAFARHLLEKIPEEEKAALFLLQHTEQSPSALGH

These binders were tested against T1, STAT1-TurboID-V5 (mouse) (assay: proximity labelling; TurboID; STAT1-TurboID-V5 (STAT1-BirA*) in Stat1-/- RAW 264.7 cells, Dox 24 h, untreated or IFNβ or IFNγ 3 h, 500 µM biotin 10 min; nuclear extracts, streptavidin beads, mass spectrometry; log2FC >= 1 above BirA*-NLS control, Padj <0.05). Conditions: not given.

| binding | Binder |
| --- | --- |
| binds | B1 |
| binds | B2 |
| binds | B3 |
| binds | B4 |
| binds | B5 |
| binds | B6 |
| binds | B7 |

Biological target: T2, STAT1-TurboID-V5 (mouse), P42225
Test: as above
Conditions: remark: other sources report otherwise

| binding | Binder |
| --- | --- |
| binds | B8 |

These are yes or no findings as the source states them, for the method shown. In cells and extracts the contact can be indirect. These calls come from enrichment with a bait or labelling near it, and not all partners need be listed. Tags and fused reporters may be left off the sequences shown.
